In patent publication US12559455B2, “Compound as a UBR box domain ligand” (AUTOTAC INC., priority 2020, dated 2026):
At least one structure is not confirmed: it was looked up by name or label, or the drawing left a doubt.

Chains of the proteins cited; added tags and fusions are not shown. Residues count along the entry.
UniProt A0A8I5ZK69, 1-1749: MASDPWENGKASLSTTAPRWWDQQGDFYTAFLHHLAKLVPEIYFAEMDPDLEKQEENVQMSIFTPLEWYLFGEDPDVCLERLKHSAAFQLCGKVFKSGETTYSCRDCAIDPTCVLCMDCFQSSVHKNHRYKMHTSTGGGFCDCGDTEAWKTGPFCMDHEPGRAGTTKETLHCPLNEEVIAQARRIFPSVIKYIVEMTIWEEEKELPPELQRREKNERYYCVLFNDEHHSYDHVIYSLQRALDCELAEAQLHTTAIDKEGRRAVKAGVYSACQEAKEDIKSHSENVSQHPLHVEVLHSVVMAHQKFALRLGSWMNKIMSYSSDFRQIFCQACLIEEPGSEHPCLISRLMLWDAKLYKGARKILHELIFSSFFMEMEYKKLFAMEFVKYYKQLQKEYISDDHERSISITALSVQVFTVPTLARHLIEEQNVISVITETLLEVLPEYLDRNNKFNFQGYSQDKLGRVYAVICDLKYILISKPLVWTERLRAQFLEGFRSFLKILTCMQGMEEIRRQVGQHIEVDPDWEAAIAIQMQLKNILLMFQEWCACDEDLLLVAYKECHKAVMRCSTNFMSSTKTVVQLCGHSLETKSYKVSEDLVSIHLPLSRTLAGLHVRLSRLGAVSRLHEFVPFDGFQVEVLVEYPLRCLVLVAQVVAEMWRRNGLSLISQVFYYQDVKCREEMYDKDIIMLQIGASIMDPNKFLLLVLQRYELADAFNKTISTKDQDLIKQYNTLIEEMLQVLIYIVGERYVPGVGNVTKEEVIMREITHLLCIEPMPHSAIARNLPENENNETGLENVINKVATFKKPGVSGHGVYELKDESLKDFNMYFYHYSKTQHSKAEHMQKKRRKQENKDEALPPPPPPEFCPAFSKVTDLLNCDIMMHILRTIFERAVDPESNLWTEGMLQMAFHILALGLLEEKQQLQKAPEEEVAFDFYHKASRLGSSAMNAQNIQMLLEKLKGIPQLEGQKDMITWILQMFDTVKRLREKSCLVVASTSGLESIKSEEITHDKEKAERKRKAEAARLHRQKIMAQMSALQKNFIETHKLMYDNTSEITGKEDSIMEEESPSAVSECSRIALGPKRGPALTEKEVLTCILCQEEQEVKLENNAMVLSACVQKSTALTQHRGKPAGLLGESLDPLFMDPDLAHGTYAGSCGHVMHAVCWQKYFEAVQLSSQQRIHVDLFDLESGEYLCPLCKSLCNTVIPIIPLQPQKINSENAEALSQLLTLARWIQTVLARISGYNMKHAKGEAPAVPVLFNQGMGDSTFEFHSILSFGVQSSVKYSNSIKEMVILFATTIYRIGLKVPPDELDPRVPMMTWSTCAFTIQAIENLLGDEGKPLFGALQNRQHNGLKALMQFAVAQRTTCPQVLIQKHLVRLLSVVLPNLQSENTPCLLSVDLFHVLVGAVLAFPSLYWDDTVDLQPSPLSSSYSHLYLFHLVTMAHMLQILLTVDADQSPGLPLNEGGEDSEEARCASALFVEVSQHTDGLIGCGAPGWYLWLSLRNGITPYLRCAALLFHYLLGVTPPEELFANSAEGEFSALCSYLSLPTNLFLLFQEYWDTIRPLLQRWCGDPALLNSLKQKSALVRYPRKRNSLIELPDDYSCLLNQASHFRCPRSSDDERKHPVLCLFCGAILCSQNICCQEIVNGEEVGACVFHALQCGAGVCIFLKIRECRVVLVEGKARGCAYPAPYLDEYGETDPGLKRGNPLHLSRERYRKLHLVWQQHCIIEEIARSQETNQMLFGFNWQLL

Target: T1, UBR1 (Rattus norvegicus, UniProt A0A8I5ZK69)
T1 construct: endogenous in cells; host or cells: L6 rat muscle-derived cells
Assay: Inhibition of muscle cell actin degradation by immunoblotting
Assay type: cell-based
Details: L6 cell line, compound 5 uM, 24 hours
Description: To evaluate the actin degradation of compounds in muscle cells, a L6 cell line, which is a rat muscle-derived cell, was cultured using a DMEM medium containing 10% FBS and 1% streptomycin/penicillin in an incubator in which 5% carbon dioxide was maintained. In order to measure the UBR1 binding strength according to the treatment with a representative compound selected from the present compounds, cells were aliquoted into a 12-well plate. The cells were additionally cultured for 24 hours so as to be completely attached to the surface of the plate. […] To extract proteins from the collected cells, 50 uL of a lysis buffer (20 mM Tris, pH 7.4, 150 mM NaCl, 1% Triton-X-100, 2 mM NaF, 2 mM EDTA, 2 mM b-glycerophosphate, 5 mM sodium orthovanadate, 1 mM PMSF, leupeptin, aprotenin) was injected into each sample, and the cells were lysed. A sample buffer was added to each sample based on the measured total protein concentration, and the mixture was reacted at 100° C. for 5 minutes. After 5 uL was taken from the completely reacted sample and aliquoted into each well of an acrylamide gel, an immunoblotting method was performed, and the experimental results were illustrated in [FIG. 4], [FIG. 5], [FIG. 6], [FIG. 7], [FIG. 8], and [FIG. 9]. For the immunoblotting method, a representative experiment was schematized from three or more independent experiments.

Row | Compound | level of ACTA2 compared to the control
1 | Nc1ccc(S(=O)(=O)NNC(=O)c2ccc(O)cc2)cc1N1CCCC1 [Compound 21, 4-amino-N′-(4-hydroxybenzoyl)-3-(pyrrolidin-1-yl)benzenesulfonohydrazide] | further increased
2 | O=C(NNS(=O)(=O)c1cc2ccccc2[nH]1)c1ccc(O)cc1 [Compound 33, N′-(4-hydroxybenzoyl)-1H-indole-2-sulfonohydrazide] | further increased
